This assay concerns the target Myc-tagged UBE2O (UniProt Q9C0C9). Nature of the assay: co-IP; HA-c-Maf and Myc-UBE2O co-transfected into HEK293T for 48 h; lysates precipitated with anti-HA or anti-Myc antibody, protein A+G agarose, 4 °C, immunoblotting. In general terms: Immunoblotting shows a protein as a band on a membrane.

By UniProt entry, the sequences of proteins in these tests, tags left out. Where a name states a change or a piece, a line headed by the entry shows the natural chain unless it says otherwise.
UniProt Q9C0C9: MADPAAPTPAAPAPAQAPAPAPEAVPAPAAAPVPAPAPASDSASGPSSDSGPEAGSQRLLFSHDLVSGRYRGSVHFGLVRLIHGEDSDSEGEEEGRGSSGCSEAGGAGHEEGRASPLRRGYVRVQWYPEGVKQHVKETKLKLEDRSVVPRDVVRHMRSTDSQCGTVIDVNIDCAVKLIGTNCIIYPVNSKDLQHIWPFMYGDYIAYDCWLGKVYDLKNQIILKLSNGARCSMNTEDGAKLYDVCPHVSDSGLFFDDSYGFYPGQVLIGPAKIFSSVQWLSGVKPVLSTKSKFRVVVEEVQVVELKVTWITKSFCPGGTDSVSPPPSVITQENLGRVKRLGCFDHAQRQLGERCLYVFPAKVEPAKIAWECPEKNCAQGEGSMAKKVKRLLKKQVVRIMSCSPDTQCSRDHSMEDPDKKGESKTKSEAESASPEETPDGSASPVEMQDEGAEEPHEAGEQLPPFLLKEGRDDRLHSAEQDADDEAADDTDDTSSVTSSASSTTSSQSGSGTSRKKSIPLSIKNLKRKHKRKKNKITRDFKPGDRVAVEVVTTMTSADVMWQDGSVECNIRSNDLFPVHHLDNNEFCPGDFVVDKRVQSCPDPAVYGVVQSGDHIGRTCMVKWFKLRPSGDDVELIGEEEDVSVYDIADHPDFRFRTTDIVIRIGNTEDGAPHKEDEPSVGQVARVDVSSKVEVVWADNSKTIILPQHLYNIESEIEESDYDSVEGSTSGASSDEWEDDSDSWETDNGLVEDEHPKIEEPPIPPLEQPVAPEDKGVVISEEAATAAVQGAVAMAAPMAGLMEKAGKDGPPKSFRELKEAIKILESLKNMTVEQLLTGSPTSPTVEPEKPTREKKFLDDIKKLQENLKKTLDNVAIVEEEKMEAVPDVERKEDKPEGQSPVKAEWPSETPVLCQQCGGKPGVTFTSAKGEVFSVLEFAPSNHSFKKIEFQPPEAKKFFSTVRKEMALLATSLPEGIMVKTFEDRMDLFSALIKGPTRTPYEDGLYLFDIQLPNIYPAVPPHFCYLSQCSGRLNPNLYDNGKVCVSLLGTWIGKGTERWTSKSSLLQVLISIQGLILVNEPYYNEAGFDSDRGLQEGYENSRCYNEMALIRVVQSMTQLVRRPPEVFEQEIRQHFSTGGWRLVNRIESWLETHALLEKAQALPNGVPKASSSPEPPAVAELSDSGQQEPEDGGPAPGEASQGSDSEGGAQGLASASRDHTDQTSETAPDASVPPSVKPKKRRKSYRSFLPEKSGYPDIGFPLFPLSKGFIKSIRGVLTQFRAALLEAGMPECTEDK
UniProt O75444: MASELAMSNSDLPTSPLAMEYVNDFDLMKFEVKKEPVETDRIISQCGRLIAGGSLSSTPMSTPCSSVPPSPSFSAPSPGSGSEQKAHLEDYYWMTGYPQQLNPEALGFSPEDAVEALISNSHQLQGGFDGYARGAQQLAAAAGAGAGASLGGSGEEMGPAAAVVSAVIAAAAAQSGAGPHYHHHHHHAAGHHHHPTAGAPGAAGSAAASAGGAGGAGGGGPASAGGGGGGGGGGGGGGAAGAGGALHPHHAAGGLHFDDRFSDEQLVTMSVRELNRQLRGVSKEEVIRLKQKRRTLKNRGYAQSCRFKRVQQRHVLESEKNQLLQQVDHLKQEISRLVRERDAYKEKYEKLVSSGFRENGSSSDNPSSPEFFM

No constants are given. Whether binding was seen depends on the method and setting. In cells and extracts the contact can be indirect. Binding can be weak; no strength is given.

As for “HA-tagged c-Maf (from UniProt O75444 1-373)”, the binding entry is “binds”.

The values above are taken from paper PMC5496436.
